Results are given in words; binding and its absence hold for the method and conditions named. Binding seen in cells or lysates may run through a third protein. Some entries that bind do so weakly or less than the wild type.
Target: T1, receptor activator of nuclear factor-kB (RANK) (mouse (endogenous in RAW264.7)) (UniProt O35305)
T1 sequence: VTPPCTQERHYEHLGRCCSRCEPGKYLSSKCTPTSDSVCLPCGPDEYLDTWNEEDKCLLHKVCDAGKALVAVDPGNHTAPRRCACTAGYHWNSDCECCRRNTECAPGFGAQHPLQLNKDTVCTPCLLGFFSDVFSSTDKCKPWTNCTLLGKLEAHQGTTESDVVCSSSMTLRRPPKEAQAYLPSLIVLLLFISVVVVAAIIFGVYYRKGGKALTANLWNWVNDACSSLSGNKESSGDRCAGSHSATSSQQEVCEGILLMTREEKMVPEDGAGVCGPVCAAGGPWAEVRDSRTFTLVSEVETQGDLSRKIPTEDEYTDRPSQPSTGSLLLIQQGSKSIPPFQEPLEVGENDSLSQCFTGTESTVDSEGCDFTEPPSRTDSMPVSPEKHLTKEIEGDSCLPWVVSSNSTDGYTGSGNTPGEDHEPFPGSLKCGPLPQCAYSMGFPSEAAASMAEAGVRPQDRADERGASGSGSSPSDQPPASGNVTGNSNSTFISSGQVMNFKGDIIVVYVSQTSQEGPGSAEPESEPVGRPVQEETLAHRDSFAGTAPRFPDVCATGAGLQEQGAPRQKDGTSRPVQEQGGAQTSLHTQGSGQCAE
Experiment: co-IP; RAW264.7 cells treated with vehicle or muscone (40 μM), with or without RANKL; TRAF6 detected by Western blot, Input: TRAF6 and IB: RANK as loading controls

B1: TNF receptor-associated factor 6 (protein, UniProt P70196 1-530)
chain: MSLLNCENSCGSSQSSSDCCAAMAASCSAAVKDDSVSGSASTGNLSSSFMEEIQGYDVEFDPPLESKYECPICLMALREAVQTPCGHRFCKACIIKSIRDAGHKCPVDNEILLENQLFPDNFAKREILSLTVKCPNKGCLQKMELRHLEDHQVHCEFALVNCPQCQRPFQKCQVNTHIIEDCPRRQVSCVNCAVSMAYEEKEIHDQSCPLANIICEYCGTILIREQMPNHYDLDCPTAPIPCTFSVFGCHEKMQRNHLARHLQENTQLHMRLLAQAVHNVNLALRPCDAASPSRGCRPEDPNYEETIKQLESRLVRQDHQIRELTAKMETQSMYVGELKRTIRTLEDKVAEMEAQQCNGIYIWKIGNFGMHLKSQEEERPVVIHSPGFYTGRPGYKLCMRLHLQLPTAQRCANYISLFVHTMQGEYDSHLPWPFQGTIRLTILDQSEALIRQNHEEVMDAKPELLAFQRPTIPRNPKGFGYVTFMHLEALRQGTFIKDDTLLVRCEVSTRFDMGGLRKEGFQPRSTDAGV
binding: binds
